Data: patent publication US9765382B2, “Application of ruthenium complexes as nucleic acid vectors of target cell nucleuses” (Guangdong Pharmaceutical University, priority 2015, dated 2017)

Test system: c-myc Pu22
Test: TEM of ruthenium complex-induced self-assembly of c-myc Pu22 DNA
[1] = 1 mM complex : 1 mM c-myc Pu22 DNA, 1:1, 90° C. under microwave radiation
[2] = 1 mM complex : 10 mM c-myc Pu22 DNA, 1:10, 90° C. under microwave radiation
[3] = 10 mM complex : 1 mM c-myc Pu22 DNA, 10:1, 90° C. under microwave radiation
[4] = 1 mM complex : 1 mM c-myc Pu22, 1:1, heated to 90° C. (no microwave)

In the case of [Ru(phen)2oMOPIP](ClO4)2, the “structure into which the nucleic acid self-assembles (TEM)” value [1] was “analogous nanotube structure”.
[Ru(phen)2oBEPIP](ClO4)2 was tested, and the “structure into which the nucleic acid self-assembles (TEM)” value [1] was “analogous nanotube structure”.
For [Ru(bpy)23-BrDPPZ](ClO4)2, the “structure into which the nucleic acid self-assembles (TEM)” value [1] was “analogous nanotube structure”.
With COc1ccccc1-c1nc2c3cccnc3c3ncccc3c2[nH]1.[O-][Cl+3]([O-])([O-])[O-].[O-][Cl+3]([O-])([O-])[O-].[Ru+2].c1ccc(-c2ccccn2)nc1.c1ccc(-c2ccccn2)nc1 [[Ru(bpy)2oMOPIP](ClO4)2] the “structure into which the nucleic acid self-assembles (TEM)” value [1] was “analogous nanotube structure”.
With COc1cccc(-c2nc3c4cccnc4c4ncccc4c3[nH]2)c1.[O-][Cl+3]([O-])([O-])[O-].[O-][Cl+3]([O-])([O-])[O-].[Ru+2].c1cnc2c(c1)ccc1cccnc12.c1cnc2c(c1)ccc1cccnc12 [[Ru(phen)2mMOPIP](ClO4)2] the “structure into which the nucleic acid self-assembles (TEM)” value [1] was “analogous nanotube structure”.
For [Ru(phen)2pEPIP](ClO4)2, the “structure into which the nucleic acid self-assembles (TEM)” value [1] was “analogous nanotube structure”.
For COc1cccc(-c2nc3c4cccnc4c4ncccc4c3[nH]2)c1.[O-][Cl+3]([O-])([O-])[O-].[O-][Cl+3]([O-])([O-])[O-].[Ru+2].c1ccc(-c2ccccn2)nc1.c1ccc(-c2ccccn2)nc1 [[Ru(bpy)2mMOPIP](ClO4)2], the “structure into which the nucleic acid self-assembles (TEM)” value [1] was “analogous nanotube structure”.
For Brc1cccc(-c2nc3c4cccnc4c4ncccc4c3[nH]2)c1.[O-][Cl+3]([O-])([O-])[O-].[O-][Cl+3]([O-])([O-])[O-].[Ru+2].c1ccc(-c2ccccn2)nc1.c1ccc(-c2ccccn2)nc1 [[Ru(bpy)2mBrPIP](ClO4)2], the “structure into which the nucleic acid self-assembles (TEM)” value [2] was “analogous nanotube structure”.
With Brc1ccc(-c2nc3c4cccnc4c4ncccc4c3[nH]2)cc1.[O-][Cl+3]([O-])([O-])[O-].[O-][Cl+3]([O-])([O-])[O-].[Ru+2].c1cnc2c(c1)ccc1cccnc12.c1cnc2c(c1)ccc1cccnc12 [[Ru(phen)2pBrPIP](ClO4)2] the “structure into which the nucleic acid self-assembles (TEM)” value [1] was “analogous nanotube structure”.
With [Ru(phen)2pTEPIP](ClO4)2 the “structure into which the nucleic acid self-assembles (TEM)” value [1] was “analogous nanotube structure”.
For [Ru(phen)23-BEDPPZ](ClO4)2, the “structure into which the nucleic acid self-assembles (TEM)” value [1] was “analogous nanotube structure”.
[O-][Cl+3]([O-])([O-])[O-].[O-][Cl+3]([O-])([O-])[O-].[Ru+2].c1ccc2nc3c4cccnc4c4ncccc4c3nc2c1.c1cnc2c(c1)ccc1cccnc12.c1cnc2c(c1)ccc1cccnc12 [[Ru(phen)2DPPZ](ClO4)2] was tested, and the “structure into which the nucleic acid self-assembles (TEM)” value [1] was “analogous nanotube structure”.
In the case of [O-][Cl+3]([O-])([O-])[O-].[O-][Cl+3]([O-])([O-])[O-].[Ru+2].c1ccc(-c2nc3c4cccnc4c4ncccc4c3[nH]2)cc1.c1cnc2c(c1)ccc1cccnc12.c1cnc2c(c1)ccc1cccnc12 [[Ru(phen)2PIP](ClO4)2], the “structure into which the nucleic acid self-assembles (TEM)” value [3] was “analogous nanotube structure”.
With [Ru(phen)2pBEPIP](ClO4)2 the “structure into which the nucleic acid self-assembles (TEM)” value [4] was “analogous nanotube structure” and the “structure into which the nucleic acid self-assembles (TEM)” value [1] was “analogous nanotube structure”.
In the case of COc1ccc(-c2nc3c4cccnc4c4ncccc4c3[nH]2)cc1.[O-][Cl+3]([O-])([O-])[O-].[O-][Cl+3]([O-])([O-])[O-].[Ru+2].c1cnc2c(c1)ccc1cccnc12.c1cnc2c(c1)ccc1cccnc12 [[Ru(phen)2pMOPIP](ClO4)2], the “structure into which the nucleic acid self-assembles (TEM)” value [1] was “analogous nanotube structure”.
[Ru(bpy)23-BEDPPZ](ClO4)2 was tested, and the “structure into which the nucleic acid self-assembles (TEM)” value [1] was “analogous nanotube structure”.
Λ-[Ru(bpy)2pBEPIP](ClO4)2 was tested, and the “structure into which the nucleic acid self-assembles (TEM)” value [4] was “analogous nanotube structure”.
With [Ru(phen)2mBEPIP](ClO4)2 the “structure into which the nucleic acid self-assembles (TEM)” value [1] was “analogous nanotube structure”.
For [Ru(bpy)2oBEPIP](ClO4)2, the “structure into which the nucleic acid self-assembles (TEM)” value [1] was “analogous nanotube structure”.
With Δ-[Ru(bpy)2pBEPIP](ClO4)2 the “structure into which the nucleic acid self-assembles (TEM)” value [4] was “analogous nanotube structure”.
In the case of Brc1ccccc1-c1nc2c3cccnc3c3ncccc3c2[nH]1.[O-][Cl+3]([O-])([O-])[O-].[O-][Cl+3]([O-])([O-])[O-].[Ru+2].c1ccc(-c2ccccn2)nc1.c1ccc(-c2ccccn2)nc1 [[Ru(bpy)2oBrPIP](ClO4)2], the “structure into which the nucleic acid self-assembles (TEM)” value [2] was “analogous nanotube structure”.
[O-][Cl+3]([O-])([O-])[O-].[O-][Cl+3]([O-])([O-])[O-].[Ru+2].c1ccc(-c2ccccn2)nc1.c1ccc(-c2ccccn2)nc1.c1ccc(-c2nc3c4cccnc4c4ncccc4c3[nH]2)cc1 [[Ru(bpy)2PIP](ClO4)2] was tested, and the “structure into which the nucleic acid self-assembles (TEM)” value [3] was “analogous nanotube structure”.
Brc1cccc(-c2nc3c4cccnc4c4ncccc4c3[nH]2)c1.[O-][Cl+3]([O-])([O-])[O-].[O-][Cl+3]([O-])([O-])[O-].[Ru+2].c1cnc2c(c1)ccc1cccnc12.c1cnc2c(c1)ccc1cccnc12 [[Ru(phen)2mBrPIP](ClO4)2] was tested, and the “structure into which the nucleic acid self-assembles (TEM)” value [1] was “analogous nanotube structure”.
[Ru(bpy)2pEPIP](ClO4)2 was tested, and the “structure into which the nucleic acid self-assembles (TEM)” value [1] was “analogous nanotube structure”.
With [Ru(bpy)2mBEPIP](ClO4)2 the “structure into which the nucleic acid self-assembles (TEM)” value [1] was “analogous nanotube structure”.
For [Ru(bpy)2pBEPIP](ClO4)2, the “structure into which the nucleic acid self-assembles (TEM)” value [4] was “nanotube structure”.
[Ru(phen)23-BrDPPZ](ClO4)2 was tested, and the “structure into which the nucleic acid self-assembles (TEM)” value [1] was “analogous nanotube structure”.
COc1ccc(-c2nc3c4cccnc4c4ncccc4c3[nH]2)cc1.[O-][Cl+3]([O-])([O-])[O-].[O-][Cl+3]([O-])([O-])[O-].[Ru+2].c1ccc(-c2ccccn2)nc1.c1ccc(-c2ccccn2)nc1 [[Ru(bpy)2pMOPIP](ClO4)2] was tested, and the “structure into which the nucleic acid self-assembles (TEM)” value [1] was “analogous nanotube structure”.
In the case of [Ru(bpy)2DPPZ](ClO4)2, the “structure into which the nucleic acid self-assembles (TEM)” value [1] was “analogous nanotube structure”.
In the case of Brc1ccc(-c2nc3c4cccnc4c4ncccc4c3[nH]2)cc1.[O-][Cl+3]([O-])([O-])[O-].[O-][Cl+3]([O-])([O-])[O-].[Ru+2].c1ccc(-c2ccccn2)nc1.c1ccc(-c2ccccn2)nc1 [[Ru(bpy)2pBrPIP](ClO4)2], the “structure into which the nucleic acid self-assembles (TEM)” value [1] was “analogous nanotube structure”.
[Ru(bpy)2pTEPIP](ClO4)2 was tested, and the “structure into which the nucleic acid self-assembles (TEM)” value [1] was “analogous nanotube structure”.
For Brc1ccccc1-c1nc2c3cccnc3c3ncccc3c2[nH]1.[O-][Cl+3]([O-])([O-])[O-].[O-][Cl+3]([O-])([O-])[O-].[Ru+2].c1cnc2c(c1)ccc1cccnc12.c1cnc2c(c1)ccc1cccnc12 [[Ru(phen)2oBrPIP](ClO4)2], the “structure into which the nucleic acid self-assembles (TEM)” value [1] was “analogous nanotube structure”.

Some compounds share one wording; it may come from a single statement.
